Paper PMC8854749, “Celastrol Inhibits Canine Mammary Tumor Cells by Inducing Apoptosis via the Caspase Pathway” (Frontiers in Veterinary Science, 2022)
Several values for one entry are separate records, joined by “and”; a condition that tells them apart may be missing. Equal entries are not always repeated.

Tests used:
CIPp cells = assay: qPCR of Caspase-3, Caspase-9, p21, p27 mRNA (2^-ΔΔCt, β-actin reference); format: cell-based, canine; details: 0.9 μM celastrol, SYBR
Method: (§1) After CMT-7364 and CIPp cells were treated with or without 0.9 μM celastrol for 24 h, TRIzol was used to isolate the total RNA of the cells. The RNA was then reverse transcribed into cDNA using a reverse transcriptase kit. A 20 μl reaction system was prepared according to the manufacturer's instructions and tested in the Real-Time PCR System (Long Gene Q1000, China). The results were analyzed by the 2^−ΔΔCt method: ΔΔCt = (target gene Ct of the experimental group-internal reference gene Ct of the experimental group)-(target gene Ct of the control group-internal reference gene Ct of the control group), β-actin was the internal reference gene.

CMT-7364 cells = assay: as above; format: cell-based, canine; details: CMT-7364, 0.9 μM celastrol, SYBR
Method: as §1

## CC1=C(O)C(=O)C=C2C1=CC=C1[C@@]2(C)CC[C@@]2(C)[C@@H]3C[C@](C)(C(=O)O)CC[C@]3(C)CC[C@]12C [celastrol, Celastrol]
CIPp cells
  ΔΔCt, caspase-9: -0.39
  ΔΔCt, p-21: -4.46
  ΔΔCt, p-27: -1.36
  ΔΔCt, β-actin: 1.80
CIPp cells; single well
  Ct, caspase-3: 22.43 and 23.08
  Ct, caspase-9: 23.01 and 23.08
  Ct, p-27: 24.00 and 23.99
  Ct, β-actin: 24.06 and 24.25
CMT-7364 cells
  Ct average, caspase-3: 22.53
  Ct average, caspase-9: 22.29
  Ct average, p-21: 23.53
  Ct average, p-27: 25.20
  Ct average, β-actin: 21.20
  ΔCt average, p-21: 2.08
  ΔCt average, p-27: 2.10
  ΔCt average, β-actin: -0.90
  ΔΔCt, caspase-9: 0.00
  ΔΔCt, p-21: 0.00
  ΔΔCt, p-27: 0.00
  ΔΔCt, β-actin: 0.00
CMT-7364 cells; single well
  Ct, caspase-3: 22.85 and 22.21
  Ct, caspase-9: 22.04 and 22.53
  Ct, p-21: 23.67 and 23.39
  Ct, p-27: 25.00 and 25.40
  Ct, β-actin: 21.38 and 21.03
